Test results from publication PMC4776307, “The Escherichia coli Cryptic Prophage Protein YfdR Binds to DnaA and Initiation of Chromosomal Replication Is Inhibited by Overexpression of the Gene Cluster yfdQ-yfdR-yfdS-yfdT” (Frontiers in Microbiology, 2016).
No constants are given. Whether binding was seen depends on the method and setting. In cells and extracts the contact can be indirect. Some entries that bind do so weakly or less than the wild type. For some assays here: Sequences can lack the tags named with a protein.

Columns and labels:
[1] = biological target: T1, biotin-tagged DnaA (bio-DnaA) (Escherichia coli, UniProt P03004 1-467, biotin (biotin-tagged)); assay: pull-down; bio-DnaA or its truncated forms (10 pmol) with soluble extract of MG1655 carrying pQRST in buffer C (20 uL; 50 mM Hepes-KOH pH 7.6, 100 mM KCl, 10 mM magnesium acetate, 10 uM ATP), 5 min on ice, then 1 h at 4°C with streptavidin magnetic beads; SDS-13% PAGE, silver staining; only the target …
T1 construct: DnaA, chromosomal replication initiator of Escherichia coli; also called bio-DnaA (Full); source: purified, as reported (Ishida et al., 2004)
T1 sequence (looked up): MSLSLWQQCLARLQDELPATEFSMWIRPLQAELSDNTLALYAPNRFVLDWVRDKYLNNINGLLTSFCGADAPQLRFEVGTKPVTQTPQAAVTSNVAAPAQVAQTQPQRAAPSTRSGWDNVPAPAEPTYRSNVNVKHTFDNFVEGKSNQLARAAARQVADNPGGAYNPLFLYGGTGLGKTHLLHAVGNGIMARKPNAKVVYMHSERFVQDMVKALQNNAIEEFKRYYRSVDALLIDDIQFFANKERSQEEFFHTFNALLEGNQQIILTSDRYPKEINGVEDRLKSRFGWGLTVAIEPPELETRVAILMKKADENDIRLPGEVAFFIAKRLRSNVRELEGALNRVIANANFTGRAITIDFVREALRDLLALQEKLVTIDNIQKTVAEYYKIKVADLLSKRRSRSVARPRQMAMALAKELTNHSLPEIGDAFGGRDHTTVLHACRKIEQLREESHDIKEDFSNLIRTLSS

DnaA (native, wild-type) = biological target: T2, DnaA (native, wild-type) (Escherichia coli, UniProt P03004 1-467); assay: pull-down; DnaA (7.5 pmol) with biotin-tagged oriC fragment (100 fmol), then protein extracts of cells carrying pQRST or pBAD18, on ice; streptavidin beads; SDS-12% PAGE, silver staining; only the target purified
T2 construct: DnaA, chromosomal replication initiator of Escherichia coli; called native, intact, wild-type DnaA; Untagged; In the bio-oriC pull-downs it stood as DnaA complexes (multimers) formed on a biotin-tagged oriC DNA fragment; also called native DnaA; wild-type DnaA (WT); source: purified
T2 sequence (looked up): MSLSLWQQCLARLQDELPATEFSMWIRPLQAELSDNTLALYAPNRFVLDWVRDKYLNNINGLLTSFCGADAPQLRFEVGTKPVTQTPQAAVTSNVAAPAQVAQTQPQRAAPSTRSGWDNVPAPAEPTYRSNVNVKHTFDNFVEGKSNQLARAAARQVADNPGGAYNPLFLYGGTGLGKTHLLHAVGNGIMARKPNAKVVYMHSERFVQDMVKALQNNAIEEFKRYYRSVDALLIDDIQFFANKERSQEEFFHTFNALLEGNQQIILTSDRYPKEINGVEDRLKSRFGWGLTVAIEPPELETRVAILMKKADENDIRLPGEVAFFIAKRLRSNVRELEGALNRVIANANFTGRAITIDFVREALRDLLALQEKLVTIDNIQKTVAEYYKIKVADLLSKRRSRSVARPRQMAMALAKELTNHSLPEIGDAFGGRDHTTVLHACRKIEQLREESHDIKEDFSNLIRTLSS

| Binder | binding [1] | binding (DnaA (native, wild-type)) |
| --- | --- | --- |
| His-tagged YfdR (His-YfdR) (natural protein, Escherichia coli, UniProt P76514 1-178, looked up, YfdR of the cryptic prophage CPS-53 of Escherichia coli; amplified from pSSP with a forward primer that begins at the ATG of yfdR (nogu10) and nogu11, cloned NheI-EcoRI into pBAD/HisB; also called purified YfdR; source: E. coli MC1061 carrying pYfdR (pBAD/HisB), arabinose-induced, purified (Ni-NTA agarose)) MSFIKTFSGKHFYYDKINKDDIVINDIAVSLSNICRFAGHLSHFYSVAQHAVLCSQLVPQEFAFEALMHDATEAYCQDIPAPLKRLLPDYKRMEEKIDAVIREKYGLPPVMSTPVKYADLIMLATERRDLGLDDGSFWPVLEGIPATEMFNVIPLAPGHAYGMFMERFNDLSELRKCA | binds | binds |
| YfdQ (protein, UniProt P76513 1-274) MSQNLDATAINQIHALISAQGVNEIISKIGADAVALPENFRIHDLEKFNLNRFRFRGALSTASIDDFTRYSKDLADEGTRCFIDADNMRAVSVLNLGTIDEPGHADNTATLKLKKTAPFSALLSVNGERNSQKSLAEWIEDWADYLVGFDANGDAIQATKAAAAIRKITIEANQTADFEDNDFSGKRSLMESVEAKTKDIMPVAFEFKCVPFEGLKERPFKLRLSIITGDRPVLVLRIIQLEAVQEDMANEFRDLLVEKFKDSKVETFIGTFTA | no binding | – |
| YfdS (protein, UniProt P76515 1-120) MRMNVFEMEGFLRGKCVPRDLKVNETNAEYLVRKFDALEAKCAALENKIIPVSAELPPANESVLLFDANGEGWLIGWRSLWYTWGQKETGEWQWTFQVGDLENVNITHWAVMPKAPEAGA | no binding | – |
| YfdT (protein, UniProt P76516 1-101) MTTFTNKELIKEIKERISSLEVRDDIERRAYEIALVSLEVEPDEREAYELFMEKRFGDLVDRRRAKNGDNEYMAWDMTLGWIIWQQRAGIHFSTMSQQEVK | no binding | – |
